Test [1] deals with CD95 (human (endogenous in CEM T cells, Th17 cells and activated PBLs)) (UniProt P25445). Nature of the test: co-IP; CEM T cells stimulated with cl-CD95L (100 ng/mL), lysed, CD95 immunoprecipitated, immunoblotting. (A western blot detects proteins with antibodies after separation by electrophoresis.)
Test [2] has the same target. Nature of the test: proximity ligation; CEM T cells and Th17 cells from peripheral blood stimulated with cl-CD95L (100 ng/mL) for indicated times; anti-CD95 and anti-PLCγ1 mAbs.

Protein sequences, listed by entry. Tags and fused reporters are not part of them. Residues count along the entry.
UniProt P25445, residues 26-335: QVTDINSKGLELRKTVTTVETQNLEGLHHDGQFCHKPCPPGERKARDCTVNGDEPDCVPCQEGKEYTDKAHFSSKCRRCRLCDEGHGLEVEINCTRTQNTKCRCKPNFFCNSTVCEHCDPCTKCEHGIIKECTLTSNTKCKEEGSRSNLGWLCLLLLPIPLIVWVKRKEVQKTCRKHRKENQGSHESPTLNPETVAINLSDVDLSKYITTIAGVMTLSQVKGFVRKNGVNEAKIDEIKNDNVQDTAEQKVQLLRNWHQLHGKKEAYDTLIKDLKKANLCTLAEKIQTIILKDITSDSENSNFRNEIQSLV

No constants are given. Whether binding was seen depends on the method and setting. In cells and extracts the contact can be indirect. Some entries that bind do so weakly or less than the wild type.

Data on 1 molecule can be found in article PMC4961226.

B1: phospholipase Cγ1 (enzyme, UniProt P19174 1-1290)
chain: MAGAASPCANGCGPGAPSDAEVLHLCRSLEVGTVMTLFYSKKSQRPERKTFQVKLETRQITWSRGADKIEGAIDIREIKEIRPGKTSRDFDRYQEDPAFRPDQSHCFVILYGMEFRLKTLSLQATSEDEVNMWIKGLTWLMEDTLQAPTPLQIERWLRKQFYSVDRNREDRISAKDLKNMLSQVNYRVPNMRFLRERLTDLEQRSGDITYGQFAQLYRSLMYSAQKTMDLPFLEASTLRAGERPELCRVSLPEFQQFLLDYQGELWAVDRLQVQEFMLSFLRDPLREIEEPYFFLDEFVTFLFSKENSVWNSQLDAVCPDTMNNPLSHYWISSSHNTYLTGDQFSSESSLEAYARCLRMGCRCIELDCWDGPDGMPVIYHGHTLTTKIKFSDVLHTIKEHAFVASEYPVILSIEDHCSIAQQRNMAQYFKKVLGDTLLTKPVEISADGLPSPNQLKRKILIKHKKLAEGSAYEEVPTSMMYSENDISNSIKNGILYLEDPVNHEWYPHYFVLTSSKIYYSEETSSDQGNEDEEEPKEVSSSTELHSNEKWFHGKLGAGRDGRHIAERLLTEYCIETGAPDGSFLVRESETFVGDYTLSFWRNGKVQHCRIHSRQDAGTPKFFLTDNLVFDSLYDLITHYQQVPLRCNEFEMRLSEPVPQTNAHESKEWYHASLTRAQAEHMLMRVPRDGAFLVRKRNEPNSYAISFRAEGKIKHCRVQQEGQTVMLGNSEFDSLVDLISYYEKHPLYRKMKLRYPINEEALEKIGTAEPDYGALYEGRNPGFYVEANPMPTFKCAVKALFDYKAQREDELTFIKSAIIQNVEKQEGGWWRGDYGGKKQLWFPSNYVEEMVNPVALEPEREHLDENSPLGDLLRGVLDVPACQIAIRPEGKNNRLFVFSISMASVAHWSLDVAADSQEELQDWVKKIREVAQTADARLTEGKIMERRKKIALELSELVVYCRPVPFDEEKIGTERACYRDMSSFPETKAEKYVNKAKGKKFLQYNRLQLSRIYPKGQRLDSSNYDPLPMWICGSQLVALNFQTPDKPMQMNQALFMTGRHCGYVLQPSTMRDEAFDPFDKSSLRGLEPCAISIEVLGARHLPKNGRGIVCPFVEIEVAGAEYDSTKQKTEFVVDNGLNPVWPAKPFHFQISNPEFAFLRFVVYEEDMFSDQNFLAQATFPVKGLKTGYRAVPLKNNYSEDLELASLLIKIDIFPAKENGDLSPFSGTSLRERGSDASGQLFHGRAREGSFESRYQQPFEDFRISQEHLADHFDSRERRAPRRTRVNGDNRL
In the case of B1, the binding entry in test [1] and in test [2] was “binds” throughout.
